Source: patent US20110152352

Chains of the proteins cited; added tags and fusions are not shown. Where a name states a change or a piece, a line headed by the entry shows the natural chain unless it says otherwise. A line that says so, or that is headed by a name, gives the form on record, which may keep a tag or linker. Residues count along the entry.
UniProt Q8WYQ5: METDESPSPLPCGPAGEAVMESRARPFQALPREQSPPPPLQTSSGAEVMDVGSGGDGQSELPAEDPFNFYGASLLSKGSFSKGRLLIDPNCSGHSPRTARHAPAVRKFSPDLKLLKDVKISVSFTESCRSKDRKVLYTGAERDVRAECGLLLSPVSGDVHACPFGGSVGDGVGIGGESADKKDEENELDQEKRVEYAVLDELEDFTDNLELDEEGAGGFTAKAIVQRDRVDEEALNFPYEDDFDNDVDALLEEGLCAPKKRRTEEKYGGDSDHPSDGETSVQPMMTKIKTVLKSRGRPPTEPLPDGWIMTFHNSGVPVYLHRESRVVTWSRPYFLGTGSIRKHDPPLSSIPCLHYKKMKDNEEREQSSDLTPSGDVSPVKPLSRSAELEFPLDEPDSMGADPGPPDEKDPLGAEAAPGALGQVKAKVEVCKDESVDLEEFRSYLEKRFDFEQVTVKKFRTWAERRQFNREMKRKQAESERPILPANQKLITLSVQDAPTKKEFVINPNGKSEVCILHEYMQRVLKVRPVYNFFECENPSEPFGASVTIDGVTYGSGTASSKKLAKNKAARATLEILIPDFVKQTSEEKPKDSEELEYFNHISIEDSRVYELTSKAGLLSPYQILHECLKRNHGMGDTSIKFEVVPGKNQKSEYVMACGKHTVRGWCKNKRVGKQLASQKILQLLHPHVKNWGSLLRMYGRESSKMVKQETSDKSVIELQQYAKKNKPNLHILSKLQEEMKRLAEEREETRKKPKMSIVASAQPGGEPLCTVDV
UniProt P17844: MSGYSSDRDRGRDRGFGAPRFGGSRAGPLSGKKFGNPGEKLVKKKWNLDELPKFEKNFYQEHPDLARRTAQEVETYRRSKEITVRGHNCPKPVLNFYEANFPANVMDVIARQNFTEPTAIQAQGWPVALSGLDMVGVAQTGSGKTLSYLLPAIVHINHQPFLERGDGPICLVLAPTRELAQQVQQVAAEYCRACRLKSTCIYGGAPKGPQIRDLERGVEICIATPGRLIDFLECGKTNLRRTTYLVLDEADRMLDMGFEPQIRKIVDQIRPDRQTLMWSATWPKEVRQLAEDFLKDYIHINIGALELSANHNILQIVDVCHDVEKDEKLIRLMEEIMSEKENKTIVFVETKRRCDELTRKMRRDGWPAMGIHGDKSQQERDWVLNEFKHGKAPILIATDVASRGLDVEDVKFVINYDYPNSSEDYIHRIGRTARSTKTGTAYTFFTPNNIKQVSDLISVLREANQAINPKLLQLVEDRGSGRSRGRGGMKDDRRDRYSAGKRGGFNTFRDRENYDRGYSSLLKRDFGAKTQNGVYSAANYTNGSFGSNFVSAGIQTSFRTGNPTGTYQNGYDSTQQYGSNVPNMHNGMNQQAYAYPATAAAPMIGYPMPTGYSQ
UniProt Q15797, 1-219: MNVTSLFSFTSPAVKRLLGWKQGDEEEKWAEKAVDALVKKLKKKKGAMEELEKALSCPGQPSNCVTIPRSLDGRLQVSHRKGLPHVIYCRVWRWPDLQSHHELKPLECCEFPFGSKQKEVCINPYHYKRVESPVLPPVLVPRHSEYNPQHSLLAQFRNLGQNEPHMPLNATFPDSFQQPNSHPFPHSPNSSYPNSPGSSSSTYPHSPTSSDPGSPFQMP
UniProt Q15796, whole entry: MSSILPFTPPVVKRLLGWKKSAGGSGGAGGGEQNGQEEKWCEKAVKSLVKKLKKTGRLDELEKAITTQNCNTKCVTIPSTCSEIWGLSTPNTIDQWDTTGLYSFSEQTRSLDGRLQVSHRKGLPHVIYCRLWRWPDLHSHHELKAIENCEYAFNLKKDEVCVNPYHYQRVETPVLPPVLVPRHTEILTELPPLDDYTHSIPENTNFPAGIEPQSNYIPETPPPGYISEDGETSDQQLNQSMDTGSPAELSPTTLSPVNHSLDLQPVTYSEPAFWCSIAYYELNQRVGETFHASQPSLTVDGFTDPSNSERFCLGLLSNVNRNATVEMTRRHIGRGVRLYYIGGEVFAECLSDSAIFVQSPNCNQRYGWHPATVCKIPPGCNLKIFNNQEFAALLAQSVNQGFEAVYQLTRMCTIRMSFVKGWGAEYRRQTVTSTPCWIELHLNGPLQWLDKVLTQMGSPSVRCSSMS
UniProt P84022: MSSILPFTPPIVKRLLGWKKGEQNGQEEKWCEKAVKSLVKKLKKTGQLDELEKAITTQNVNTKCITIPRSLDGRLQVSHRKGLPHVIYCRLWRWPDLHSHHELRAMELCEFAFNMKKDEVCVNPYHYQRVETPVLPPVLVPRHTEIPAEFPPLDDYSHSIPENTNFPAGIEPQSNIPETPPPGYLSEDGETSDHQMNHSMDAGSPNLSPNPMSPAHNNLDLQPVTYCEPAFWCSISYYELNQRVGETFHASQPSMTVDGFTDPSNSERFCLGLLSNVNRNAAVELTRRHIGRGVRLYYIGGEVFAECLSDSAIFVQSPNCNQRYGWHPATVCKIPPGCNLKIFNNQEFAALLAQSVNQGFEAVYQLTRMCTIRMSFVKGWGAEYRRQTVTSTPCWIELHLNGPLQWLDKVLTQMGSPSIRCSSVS
Smad2/Smad3 endogenous (Homo sapiens), one chain, as listed by the source, chain 2 of 2: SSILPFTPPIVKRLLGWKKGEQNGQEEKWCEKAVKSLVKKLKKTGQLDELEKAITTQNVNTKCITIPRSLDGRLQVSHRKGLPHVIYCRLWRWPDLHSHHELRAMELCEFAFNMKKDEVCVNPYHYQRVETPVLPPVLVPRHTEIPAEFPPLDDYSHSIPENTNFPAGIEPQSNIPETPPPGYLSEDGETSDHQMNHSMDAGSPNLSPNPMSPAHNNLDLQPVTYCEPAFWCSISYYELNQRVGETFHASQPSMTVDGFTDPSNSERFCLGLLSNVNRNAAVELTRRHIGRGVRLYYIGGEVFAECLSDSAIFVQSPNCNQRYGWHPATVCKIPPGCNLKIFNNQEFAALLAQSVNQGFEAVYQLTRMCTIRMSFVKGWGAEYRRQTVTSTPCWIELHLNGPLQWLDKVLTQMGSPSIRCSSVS
Smad1/Smad5 endogenous (Homo sapiens), one chain, as listed by the source, chain 1 of 2: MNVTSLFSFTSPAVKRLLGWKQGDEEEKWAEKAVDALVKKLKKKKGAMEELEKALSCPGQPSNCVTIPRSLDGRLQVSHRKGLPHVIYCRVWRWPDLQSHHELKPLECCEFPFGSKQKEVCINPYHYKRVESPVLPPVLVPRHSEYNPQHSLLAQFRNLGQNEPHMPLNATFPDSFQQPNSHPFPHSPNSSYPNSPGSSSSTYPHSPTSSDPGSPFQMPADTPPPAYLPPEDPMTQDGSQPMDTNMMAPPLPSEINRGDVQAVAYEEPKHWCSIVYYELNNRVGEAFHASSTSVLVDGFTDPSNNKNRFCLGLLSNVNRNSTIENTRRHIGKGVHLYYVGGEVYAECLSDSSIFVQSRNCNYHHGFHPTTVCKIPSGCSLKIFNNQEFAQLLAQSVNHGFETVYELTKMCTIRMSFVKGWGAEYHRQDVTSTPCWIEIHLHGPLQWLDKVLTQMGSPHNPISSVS
Smad1/Smad5 endogenous (Homo sapiens), one chain, as listed by the source, chain 2 of 2: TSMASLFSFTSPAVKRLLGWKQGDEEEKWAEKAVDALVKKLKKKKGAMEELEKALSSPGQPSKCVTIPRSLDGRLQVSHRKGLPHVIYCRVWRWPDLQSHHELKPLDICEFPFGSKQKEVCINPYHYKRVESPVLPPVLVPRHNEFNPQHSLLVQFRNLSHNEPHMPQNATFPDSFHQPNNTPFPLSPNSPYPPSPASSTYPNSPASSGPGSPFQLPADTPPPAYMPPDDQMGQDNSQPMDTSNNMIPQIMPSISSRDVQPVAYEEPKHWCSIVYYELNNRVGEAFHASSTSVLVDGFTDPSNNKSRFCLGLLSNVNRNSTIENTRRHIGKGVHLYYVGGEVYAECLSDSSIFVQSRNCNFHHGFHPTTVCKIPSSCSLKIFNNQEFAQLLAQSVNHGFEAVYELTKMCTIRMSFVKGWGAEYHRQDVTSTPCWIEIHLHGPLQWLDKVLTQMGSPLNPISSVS
Smad2/Smad3 endogenous (Homo sapiens), one chain, as listed by the source, chain 1 of 2: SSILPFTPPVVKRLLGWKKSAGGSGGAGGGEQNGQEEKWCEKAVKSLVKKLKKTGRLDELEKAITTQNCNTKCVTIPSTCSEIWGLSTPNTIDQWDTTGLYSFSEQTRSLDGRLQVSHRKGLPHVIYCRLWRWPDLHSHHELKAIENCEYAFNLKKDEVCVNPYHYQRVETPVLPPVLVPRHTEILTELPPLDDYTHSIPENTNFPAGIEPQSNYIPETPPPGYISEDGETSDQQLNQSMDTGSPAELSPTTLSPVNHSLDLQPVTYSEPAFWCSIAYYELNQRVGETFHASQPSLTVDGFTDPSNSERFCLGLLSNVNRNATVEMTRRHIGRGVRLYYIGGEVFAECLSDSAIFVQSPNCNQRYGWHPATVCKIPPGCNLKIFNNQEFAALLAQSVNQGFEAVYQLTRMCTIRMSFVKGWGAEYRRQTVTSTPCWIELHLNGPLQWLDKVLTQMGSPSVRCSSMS

Columns and labels:
[1] = biological target: DGCR8 endogenous (Homo sapiens) (UniProt Q8WYQ5); test: binding assay; details: RNA-IP, BMP4; protein in cells; protein details: PASMC
[2] = biological target: T1, Drosha endogenous (Homo sapiens) (UniProt Q9NRR4); test: binding assay; details: RNA-ChIP, protein in cells, protein details: PASMC
T1 sequence (looked up, limits assumed): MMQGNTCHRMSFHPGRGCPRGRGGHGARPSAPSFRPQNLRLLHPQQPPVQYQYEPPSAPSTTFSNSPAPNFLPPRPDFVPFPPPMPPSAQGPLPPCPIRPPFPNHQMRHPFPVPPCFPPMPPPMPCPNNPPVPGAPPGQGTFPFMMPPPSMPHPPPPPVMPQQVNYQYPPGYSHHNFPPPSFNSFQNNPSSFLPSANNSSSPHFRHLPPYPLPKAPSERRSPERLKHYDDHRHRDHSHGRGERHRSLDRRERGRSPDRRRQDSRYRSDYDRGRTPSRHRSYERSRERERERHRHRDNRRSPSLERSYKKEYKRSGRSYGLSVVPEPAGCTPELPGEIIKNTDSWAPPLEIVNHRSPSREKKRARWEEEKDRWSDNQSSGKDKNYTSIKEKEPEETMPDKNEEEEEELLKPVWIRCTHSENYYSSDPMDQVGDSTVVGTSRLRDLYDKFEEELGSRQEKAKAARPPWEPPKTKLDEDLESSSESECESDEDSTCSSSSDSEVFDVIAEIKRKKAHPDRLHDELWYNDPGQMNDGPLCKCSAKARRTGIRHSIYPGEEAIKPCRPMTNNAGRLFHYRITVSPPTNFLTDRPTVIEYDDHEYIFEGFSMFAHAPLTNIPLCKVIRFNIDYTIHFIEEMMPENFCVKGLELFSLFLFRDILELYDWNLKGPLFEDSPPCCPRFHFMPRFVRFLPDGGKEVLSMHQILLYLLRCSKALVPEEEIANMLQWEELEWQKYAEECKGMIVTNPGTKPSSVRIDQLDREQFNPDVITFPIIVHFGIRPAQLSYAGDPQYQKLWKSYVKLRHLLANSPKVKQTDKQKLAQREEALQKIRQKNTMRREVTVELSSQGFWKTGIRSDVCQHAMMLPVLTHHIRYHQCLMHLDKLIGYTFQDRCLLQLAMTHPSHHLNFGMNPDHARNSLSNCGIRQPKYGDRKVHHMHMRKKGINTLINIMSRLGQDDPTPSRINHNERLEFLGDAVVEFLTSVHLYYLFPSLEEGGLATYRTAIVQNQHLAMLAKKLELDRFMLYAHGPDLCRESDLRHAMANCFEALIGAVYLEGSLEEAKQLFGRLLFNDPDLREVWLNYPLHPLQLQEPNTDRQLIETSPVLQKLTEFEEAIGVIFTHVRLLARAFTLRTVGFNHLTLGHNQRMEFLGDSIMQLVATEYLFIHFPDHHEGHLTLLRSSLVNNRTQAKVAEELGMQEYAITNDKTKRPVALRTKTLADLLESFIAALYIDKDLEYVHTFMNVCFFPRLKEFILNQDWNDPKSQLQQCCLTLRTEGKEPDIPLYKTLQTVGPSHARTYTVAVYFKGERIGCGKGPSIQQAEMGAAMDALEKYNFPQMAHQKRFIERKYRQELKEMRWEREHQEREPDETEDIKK

[3] = tested on: Smad1/Smad5 endogenous (Homo sapiens); test: binding assay; details: RNA-ChIP, protein in cells, protein details: PASMC
[4] = tested on: Smad2/Smad3 endogenous (Homo sapiens); test: binding assay; details: RNA-ChIP, protein in cells, protein details: PASMC
[5] = biological target: p68 (DDX5) endogenous (Homo sapiens) (UniProt P17844); test: binding assay; details: RNA-ChIP, constitutive; protein in cells; protein details: PASMC
[6] = tested on: Smad1 (nuclear extract); test: competition with a labelled probe; details: competes for Smad1 binding to pri-miR-21, 3-30 fold excess; protein in an extract; protein details: Cos7 nuclear extract, BMP4 treated
[7] = biological target: Smad1 MH1 domain (UniProt Q15797); test: pull-down; details: dramatic decrease; purified recombinant protein; protein details: GST fusion, E. coli
[8] = biological target: DGCR8 (UniProt Q8WYQ5); test: binding assay; details: RNA-IP, protein in cells, protein details: Flag, Cos7
[9] = biological target: T2, Drosha (Homo sapiens) (UniProt Q9NRR4); test: binding assay; details: RNA-IP, protein in cells, protein details: Flag, Cos7
T2 sequence (looked up, limits assumed): T1 sequence (looked up, limits assumed)

[10] = biological target: Smad1 (UniProt Q15797); test: binding assay; details: RNA-IP, BMP4; protein in cells; protein details: Flag, Cos7
[11] = tested on: Smad1 (nuclear extract); test: pull-down; details: protein in an extract, protein details: Cos7 nuclear extract, BMP4 treated
[12] = tested on: p68 (DDX5); test: pull-down; details: protein in an extract, protein details: Cos7 nuclear extract, BMP4 treated
[13] = biological target: Smad2 (UniProt Q15796); test: binding assay; details: RNA-ChIP; induced by TGFb, not BMP4; protein in cells; protein details: Flag, Cos7
[14] = biological target: Smad3 (UniProt P84022); test: binding assay; details: RNA-ChIP; induced by TGFb, not BMP4; protein in cells; protein details: Flag, Cos7

GCCAACCCAGUGUUCAGACUACCUGUUCAGGAGGCUCUCAAUGUGUACAGUAGUCUGCACAUUGGUUAGGC [pri-miR-199a]
binding result [1]: binds
binding result ([2]; ligand enhanced): binds
binding result ([3]; BMP4): binds
binding result ([4]; TGFb): binds
binding result [5]: binds

GGCCUGGCUGGACAGAGUUGUCAUGUGUCUGCCUGUCUACACUUGCUGUGCAGAACAUCCGCUCACCUGUACAGCAGGCACAGACAGGCAGUCACAUGACAACCCAGCCU [pri-miR-214]
binding result ([2]; constitutive): binds
binding result [3]: no binding
binding result [4]: no binding
binding result [5]: binds

GTATCAGATCTGTGAA (double strand) [SBE1 DNA duplex]
binding result [6]: binds

GTATGTCTAGACTGAA (double strand) [SBE2 DNA duplex]
binding result [6]: binds

UGUCGGGUAGCUUAUAAAACUGAUGUUGACUGUUGAAUCUCAUGGCAACACCAGUCGAUGGGCUGUCUGACA [pri-miR-21 R-SBE M1]
binding result [7]: binds more weakly
binding result ([8]; no BMP4-dependent recruitment): binds more weakly
binding result ([9]; no BMP4-dependent recruitment): binds more weakly
binding result [10]: binds more weakly

UGUCGGGUAGCUUAUAAAACUGAUGUUGACUGUUGAAUCUCAUGGCAACACCAGUUUAUGGGCUGUCUGACA [pri-miR-21 R-SBE M3]
binding result [11]: no binding
binding result ([12]; R-SBE not required): binds

UGUCGGGUAGCUUAUCAGACUGAUGUUGACUGUUGAAUCUCAUGGCAACACCAGUCGAUGGGCUGUCUGACA [pri-miR-21 WT (156 nt; hairpin sequence given)]
binding result ([11]; immobilized RNA, immunoblot): binds
binding result [12]: binds
binding result ([8]; BMP4-dependent): binds
binding result ([9]; BMP4-dependent): binds
binding result [10]: binds

UGUCGGGUAGCUUAUCAGACUGAUGUUGACUGUUGAAUCUCAUGGCAACACCAGUCGAUGGGCUGUCUGACA [pri-miR-21 from pCMV-miR-21 (480 nt; hairpin sequence given)]
binding result [13]: binds
binding result [14]: binds

UGUCGGGUAGCUUAUCAGACUGAUGUUGACUGUUGAAUCUCAUGGCAACACCUAACGAUGGGCUGUCUGACA [pri-miR-21 R-SBE M2]
binding result [7]: binds more weakly

UGUCGGGUAGCUUAUCAGACUGAUGUUGACUGUUGACCAUCAUGGCAACACCAGUCGAUGGGCUGUCUGACA [pri-miR-21 Loop mut]
binding result [11]: binds
binding result [12]: binds
binding result ([8]; BMP4-dependent): binds
binding result ([9]; BMP4-dependent): binds
binding result [10]: binds

UGUCGGGUUAAUUAUCAGACUGAUGUUGACUGUUGAAUCUCAUGGCAACACCAGUCGAUGGGCUGUCUGACA [pri-miR-21 5' mut]
binding result [11]: binds
binding result [12]: binds
binding result [10]: binds

For part of these data: A weaker result is weaker than the reference pair of the same experiment. For part of these data: At least one result comes from cells or an extract, where the contact may be indirect. For part of these data: A negative result means that nothing was seen under these conditions. For part of these data: Tags and fusion partners may be left off the protein sequences shown. For part of these data: For at least one entry, the source does not settle the construct or the ends of the probe.
